The text below walks through data of PMC10409943.

Sequences of proteins named here, by UniProt entry; tags and fusion partners are left off. Residues count along the entry.
UniProt P10912, residues 19-638: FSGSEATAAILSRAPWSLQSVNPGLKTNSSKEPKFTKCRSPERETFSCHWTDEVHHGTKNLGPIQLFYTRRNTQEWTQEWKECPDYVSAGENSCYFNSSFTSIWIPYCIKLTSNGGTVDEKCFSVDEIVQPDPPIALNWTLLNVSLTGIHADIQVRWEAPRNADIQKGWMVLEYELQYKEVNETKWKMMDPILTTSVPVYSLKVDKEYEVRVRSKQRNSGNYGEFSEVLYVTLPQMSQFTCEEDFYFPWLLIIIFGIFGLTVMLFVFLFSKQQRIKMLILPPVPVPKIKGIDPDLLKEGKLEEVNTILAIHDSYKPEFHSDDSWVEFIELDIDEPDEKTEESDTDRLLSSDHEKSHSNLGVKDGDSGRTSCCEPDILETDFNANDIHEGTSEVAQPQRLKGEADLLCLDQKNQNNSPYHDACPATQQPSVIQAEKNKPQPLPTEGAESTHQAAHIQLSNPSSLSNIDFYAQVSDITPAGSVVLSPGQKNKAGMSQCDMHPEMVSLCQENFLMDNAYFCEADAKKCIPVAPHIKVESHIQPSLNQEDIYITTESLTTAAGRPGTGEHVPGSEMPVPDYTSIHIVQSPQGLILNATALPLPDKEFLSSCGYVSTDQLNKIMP
UniProt P29692: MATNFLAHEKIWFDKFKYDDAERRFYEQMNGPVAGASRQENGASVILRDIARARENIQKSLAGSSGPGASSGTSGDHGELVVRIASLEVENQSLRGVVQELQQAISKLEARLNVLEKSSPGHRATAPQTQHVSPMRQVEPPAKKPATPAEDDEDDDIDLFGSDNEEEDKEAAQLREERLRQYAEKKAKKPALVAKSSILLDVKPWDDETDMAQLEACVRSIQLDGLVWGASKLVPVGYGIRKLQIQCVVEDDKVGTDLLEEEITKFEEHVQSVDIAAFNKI
UniProt O15212: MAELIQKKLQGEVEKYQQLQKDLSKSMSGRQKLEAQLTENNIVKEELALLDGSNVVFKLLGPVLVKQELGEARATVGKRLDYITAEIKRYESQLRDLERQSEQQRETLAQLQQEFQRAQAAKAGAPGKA
UniProt P34932: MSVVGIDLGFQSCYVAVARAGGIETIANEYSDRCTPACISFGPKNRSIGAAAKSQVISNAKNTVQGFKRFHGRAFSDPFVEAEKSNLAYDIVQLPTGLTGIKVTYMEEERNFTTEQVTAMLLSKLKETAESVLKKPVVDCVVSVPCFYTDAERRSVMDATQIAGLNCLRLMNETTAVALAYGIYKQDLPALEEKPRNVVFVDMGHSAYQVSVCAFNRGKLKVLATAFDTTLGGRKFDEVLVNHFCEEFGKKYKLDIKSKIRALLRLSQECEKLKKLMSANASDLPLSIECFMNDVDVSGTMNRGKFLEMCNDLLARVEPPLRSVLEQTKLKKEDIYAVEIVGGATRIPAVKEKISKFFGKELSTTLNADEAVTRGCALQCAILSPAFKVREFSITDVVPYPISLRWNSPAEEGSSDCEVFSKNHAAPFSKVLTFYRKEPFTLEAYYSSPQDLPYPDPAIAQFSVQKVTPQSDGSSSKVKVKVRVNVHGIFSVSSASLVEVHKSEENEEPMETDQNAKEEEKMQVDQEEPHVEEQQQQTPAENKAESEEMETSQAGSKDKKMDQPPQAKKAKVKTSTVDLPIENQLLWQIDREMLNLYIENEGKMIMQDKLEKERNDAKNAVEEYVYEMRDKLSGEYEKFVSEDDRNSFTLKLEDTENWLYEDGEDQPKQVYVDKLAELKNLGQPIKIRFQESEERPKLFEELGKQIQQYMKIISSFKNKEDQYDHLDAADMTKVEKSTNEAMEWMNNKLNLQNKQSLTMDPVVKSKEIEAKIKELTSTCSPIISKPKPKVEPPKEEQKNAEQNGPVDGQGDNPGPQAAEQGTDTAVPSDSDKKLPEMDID
UniProt A0MZ66: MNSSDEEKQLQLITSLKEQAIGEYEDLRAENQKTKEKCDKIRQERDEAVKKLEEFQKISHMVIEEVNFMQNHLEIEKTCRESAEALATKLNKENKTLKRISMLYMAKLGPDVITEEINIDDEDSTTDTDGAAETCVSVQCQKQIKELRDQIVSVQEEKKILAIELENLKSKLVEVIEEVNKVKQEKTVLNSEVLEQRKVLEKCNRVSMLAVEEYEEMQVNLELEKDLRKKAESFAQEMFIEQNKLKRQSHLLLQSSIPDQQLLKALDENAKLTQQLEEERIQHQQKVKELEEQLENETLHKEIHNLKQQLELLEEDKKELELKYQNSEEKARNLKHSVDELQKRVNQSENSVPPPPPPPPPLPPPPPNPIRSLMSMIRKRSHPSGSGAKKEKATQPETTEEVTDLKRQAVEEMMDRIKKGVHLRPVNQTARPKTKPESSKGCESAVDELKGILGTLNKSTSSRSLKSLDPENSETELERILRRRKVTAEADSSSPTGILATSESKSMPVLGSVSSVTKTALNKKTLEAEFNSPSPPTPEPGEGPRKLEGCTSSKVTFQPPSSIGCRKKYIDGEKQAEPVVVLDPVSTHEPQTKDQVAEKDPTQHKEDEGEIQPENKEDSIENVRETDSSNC
UniProt P27708: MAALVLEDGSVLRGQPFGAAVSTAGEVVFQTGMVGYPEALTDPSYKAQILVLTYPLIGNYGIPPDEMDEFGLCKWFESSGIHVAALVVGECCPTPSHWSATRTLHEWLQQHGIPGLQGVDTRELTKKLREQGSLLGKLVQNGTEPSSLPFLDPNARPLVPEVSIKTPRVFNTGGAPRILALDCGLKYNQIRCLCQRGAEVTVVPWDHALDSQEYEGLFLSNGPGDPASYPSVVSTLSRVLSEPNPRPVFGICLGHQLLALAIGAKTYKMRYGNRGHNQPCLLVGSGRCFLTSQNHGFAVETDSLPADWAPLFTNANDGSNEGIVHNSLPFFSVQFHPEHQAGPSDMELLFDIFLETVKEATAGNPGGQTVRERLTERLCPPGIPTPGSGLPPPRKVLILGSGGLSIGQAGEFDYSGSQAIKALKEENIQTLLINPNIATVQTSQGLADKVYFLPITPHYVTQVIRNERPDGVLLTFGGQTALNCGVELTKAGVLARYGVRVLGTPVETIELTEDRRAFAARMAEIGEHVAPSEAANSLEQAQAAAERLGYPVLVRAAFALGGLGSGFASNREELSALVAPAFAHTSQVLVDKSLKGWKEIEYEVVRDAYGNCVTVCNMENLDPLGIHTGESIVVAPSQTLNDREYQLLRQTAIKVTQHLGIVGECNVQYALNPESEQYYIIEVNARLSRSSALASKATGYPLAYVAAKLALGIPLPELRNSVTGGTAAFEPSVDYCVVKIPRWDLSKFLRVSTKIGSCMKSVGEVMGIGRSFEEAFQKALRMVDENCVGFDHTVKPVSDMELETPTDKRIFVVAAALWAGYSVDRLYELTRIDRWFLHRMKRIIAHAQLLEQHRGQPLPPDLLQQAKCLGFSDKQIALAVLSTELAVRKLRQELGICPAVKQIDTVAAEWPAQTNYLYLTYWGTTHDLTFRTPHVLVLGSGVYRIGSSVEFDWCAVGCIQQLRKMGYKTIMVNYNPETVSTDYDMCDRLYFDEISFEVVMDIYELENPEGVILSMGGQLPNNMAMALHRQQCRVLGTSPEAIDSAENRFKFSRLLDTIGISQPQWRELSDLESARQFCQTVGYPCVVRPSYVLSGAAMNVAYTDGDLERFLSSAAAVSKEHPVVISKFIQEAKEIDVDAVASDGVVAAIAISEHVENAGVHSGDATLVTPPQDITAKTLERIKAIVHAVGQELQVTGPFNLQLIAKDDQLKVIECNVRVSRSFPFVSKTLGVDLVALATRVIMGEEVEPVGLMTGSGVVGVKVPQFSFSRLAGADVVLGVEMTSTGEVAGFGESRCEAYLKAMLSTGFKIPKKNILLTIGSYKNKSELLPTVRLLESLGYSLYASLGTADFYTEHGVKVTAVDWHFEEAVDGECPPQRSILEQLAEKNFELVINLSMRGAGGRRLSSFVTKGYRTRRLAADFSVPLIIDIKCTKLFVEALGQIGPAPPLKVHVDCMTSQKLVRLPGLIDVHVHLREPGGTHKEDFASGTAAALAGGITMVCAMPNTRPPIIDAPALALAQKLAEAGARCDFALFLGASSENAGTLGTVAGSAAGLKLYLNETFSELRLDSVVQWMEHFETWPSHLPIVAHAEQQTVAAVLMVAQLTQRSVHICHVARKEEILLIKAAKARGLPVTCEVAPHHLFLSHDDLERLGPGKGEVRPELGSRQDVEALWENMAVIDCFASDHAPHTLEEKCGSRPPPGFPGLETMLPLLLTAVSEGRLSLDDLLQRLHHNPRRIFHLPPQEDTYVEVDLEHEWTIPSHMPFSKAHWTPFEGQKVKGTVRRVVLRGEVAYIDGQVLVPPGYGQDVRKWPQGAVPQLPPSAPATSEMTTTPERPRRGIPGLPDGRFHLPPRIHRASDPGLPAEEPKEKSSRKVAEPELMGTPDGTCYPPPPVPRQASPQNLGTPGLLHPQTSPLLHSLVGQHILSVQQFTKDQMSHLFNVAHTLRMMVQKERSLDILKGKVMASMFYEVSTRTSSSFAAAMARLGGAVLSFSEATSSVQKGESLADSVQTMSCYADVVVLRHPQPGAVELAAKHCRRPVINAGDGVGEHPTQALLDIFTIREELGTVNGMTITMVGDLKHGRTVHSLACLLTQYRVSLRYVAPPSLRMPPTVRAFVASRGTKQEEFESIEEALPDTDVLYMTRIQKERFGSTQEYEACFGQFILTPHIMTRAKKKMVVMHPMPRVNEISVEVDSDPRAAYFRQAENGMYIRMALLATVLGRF
UniProt P63241: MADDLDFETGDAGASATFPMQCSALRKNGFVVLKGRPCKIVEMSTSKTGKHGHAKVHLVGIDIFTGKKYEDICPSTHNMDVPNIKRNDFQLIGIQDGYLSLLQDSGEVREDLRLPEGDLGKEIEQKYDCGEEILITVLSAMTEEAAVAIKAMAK
UniProt P68104: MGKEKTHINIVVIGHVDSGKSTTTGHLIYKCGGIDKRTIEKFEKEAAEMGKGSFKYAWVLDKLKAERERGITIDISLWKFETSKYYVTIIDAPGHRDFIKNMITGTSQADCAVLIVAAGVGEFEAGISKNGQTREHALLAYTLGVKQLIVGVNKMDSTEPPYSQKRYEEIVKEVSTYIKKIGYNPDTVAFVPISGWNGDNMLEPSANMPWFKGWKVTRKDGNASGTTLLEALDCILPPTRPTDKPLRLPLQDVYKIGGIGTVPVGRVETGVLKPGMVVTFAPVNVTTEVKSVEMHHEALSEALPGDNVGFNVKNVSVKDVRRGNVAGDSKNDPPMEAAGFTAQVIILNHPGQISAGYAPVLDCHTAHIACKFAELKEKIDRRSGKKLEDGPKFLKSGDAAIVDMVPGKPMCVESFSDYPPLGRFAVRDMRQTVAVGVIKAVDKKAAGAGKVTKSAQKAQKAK
UniProt P11142: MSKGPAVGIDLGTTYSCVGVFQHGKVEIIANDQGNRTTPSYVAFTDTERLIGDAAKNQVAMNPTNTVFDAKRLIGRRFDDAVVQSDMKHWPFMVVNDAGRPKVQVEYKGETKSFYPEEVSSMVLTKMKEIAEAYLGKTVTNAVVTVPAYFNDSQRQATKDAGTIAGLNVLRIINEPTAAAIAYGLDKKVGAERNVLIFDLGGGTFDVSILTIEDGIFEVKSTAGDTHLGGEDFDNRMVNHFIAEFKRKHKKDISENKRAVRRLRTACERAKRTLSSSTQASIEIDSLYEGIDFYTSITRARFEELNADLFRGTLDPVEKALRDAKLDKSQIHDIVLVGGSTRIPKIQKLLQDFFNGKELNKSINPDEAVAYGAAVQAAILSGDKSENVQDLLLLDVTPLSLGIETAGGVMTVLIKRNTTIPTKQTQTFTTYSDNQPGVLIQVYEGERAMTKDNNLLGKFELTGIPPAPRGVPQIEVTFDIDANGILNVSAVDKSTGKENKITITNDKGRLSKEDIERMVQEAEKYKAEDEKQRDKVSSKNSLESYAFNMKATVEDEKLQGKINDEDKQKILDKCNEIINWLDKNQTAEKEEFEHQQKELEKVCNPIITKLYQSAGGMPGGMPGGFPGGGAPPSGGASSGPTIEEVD
UniProt Q9UHV9: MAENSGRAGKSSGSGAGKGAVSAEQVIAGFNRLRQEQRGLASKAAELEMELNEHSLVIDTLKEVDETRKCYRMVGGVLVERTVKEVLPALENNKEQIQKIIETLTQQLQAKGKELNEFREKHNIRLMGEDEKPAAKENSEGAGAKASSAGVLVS
UniProt Q15008: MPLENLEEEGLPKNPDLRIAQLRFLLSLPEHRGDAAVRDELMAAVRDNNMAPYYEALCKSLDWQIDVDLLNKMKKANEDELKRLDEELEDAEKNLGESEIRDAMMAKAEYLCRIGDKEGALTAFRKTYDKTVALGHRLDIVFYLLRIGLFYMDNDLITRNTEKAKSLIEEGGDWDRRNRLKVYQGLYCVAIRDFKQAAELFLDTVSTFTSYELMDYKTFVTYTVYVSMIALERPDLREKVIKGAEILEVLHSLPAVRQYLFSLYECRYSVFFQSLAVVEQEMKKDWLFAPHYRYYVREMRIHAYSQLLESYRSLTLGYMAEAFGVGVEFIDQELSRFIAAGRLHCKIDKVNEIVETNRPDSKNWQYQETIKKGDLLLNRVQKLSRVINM

To fix the notation:
B1: CRIP2 (protein, UniProt P52943 1-208)
chain: MASKCPKCDKTVYFAEKVSSLGKDWHKFCLKCERCSKTLTPGGHAEHDGKPFCHKPCYATLFGPKGVNIGGAGSYIYEKPLAEGPQVTGPIEVPAARAEERKASGPPKGPSRASSVTTFTGEPNTCPRCSKKVYFAEKVTSLGKDWHRPCLRCERCGKTLTPGGHAEHDGQPYCHKPCYGILFGPKGVNTGAVGSYIYDRDPEGKVQP
B2: RPN1 (protein, UniProt P04843 24-607)
chain: ASSEAPPLINEDVKRTVDLSSHLAKVTAEVVLAHLGGGSTSRATSFLLALEPELEARLAHLGVQVKGEDEEENNLEVRETKIKGKSGRFFTVKLPVALDPGAKISVIVETVYTHVLHPYPTQITQSEKQFVVFEGNHYFYSPYPTKTQTMRVKLASRNVESYTKLGNPTRSEDLLDYGPFRDVPAYSQDTFKVHYENNSPFLTITSMTRVIEVSHWGNIAVEENVDLKHTGAVLKGPFSRYDYQRQPDSGISSIRSFKTILPAAAQDVYYRDEIGNVSTSHLLILDDSVEMEIRPRFPLFGGWKTHYIVGYNLPSYEYLYNLGDQYALKMRFVDHVFDEQVIDSLTVKIILPEGAKNIEIDSPYEISRAPDELHYTYLDTFGRPVIVAYKKNLVEQHIQDIVVHYTFNKVLMLQEPLLVVAAFYILFFTVIIYVRLDFSITKDPAAEARMKVACITEQVLTLVNKRIGLYRHFDETVNRYKQSRDISTLNSGKKSLETEHKALTSEIALLQSRLKTEGSDLCDRVSEMQKLDAQVKELVLKSAVEAERLVAGKLKKDTYIENEKLISGKRQELVTKIDHILDAL
B3: ITIH3 (protein, UniProt Q06033 35-651)
chain: LPEGVANGIEVYSTKINSKVTSRFAHNVVTMRAVNRADTAKEVSFDVELPKTAFITNFTLTIDGVTYPGNVKEKEVAKKQYEKAVSQGKTAGLVKASGRKLEKFTVSVNVAAGSKVTFELTYEELLKRHKGKYEMYLKVQPKQLVKHFEIEVDIFEPQGISMLDAEASFITNDLLGSALTKSFSGKKGHVSFKPSLDQQRSCPTCTDSLLNGDFTITYDVNRESPGNVQIVNGYFVHFFAPQGLPVVPKNVAFVIDISGSMAGRKLEQTKEALLRILEDMQEEDYLNFILFSGDVSTWKEHLVQATPENLQEARTFVKSMEDKGMTNINDGLLRGISMLNKAREEHRIPERSTSIVIMLTDGDANVGESRPEKIQENVRNAIGGKFPLYNLGFGNNLNYNFLENMALENHGFARRIYEDSDADLQLQGFYEEVANPLLTGVEMEYPENAILDLTQNTYQHFYDGSEIVVAGRLVDEDMNSFKADVKGHGATNDLTFTEEVDMKEMEKALQERDYIFGNYIERLWAYLTIEQLLEKRKNAHGEEKENLTARALDLSLKYHFVTPLTSMVVTKPEDNEDERAIADKPGEDAEATPVSPAMSYLTSYQPPQNPYYYVDGD
B4: TES (protein, UniProt Q9UGI8 1-421)
chain: MDLENKVKKMGLGHEQGFGAPCLKCKEKCEGFELHFWRKICRNCKCGQEEHDVLLSNEEDRKVGKLFEDTKYTTLIAKLKSDGIPMYKRNVMILTNPVAAKKNVSINTVTYEWAPPVQNQALARQYMQMLPKEKQPVAGSEGAQYRKKQLAKQLPAHDQDPSKCHELSPREVKEMEQFVKKYKSEALGVGDVKLPCEMDAQGPKQMNIPGGDRSTPAAVGAMEDKSAEHKRTQYSCYCCKLSMKEGDPAIYAERAGYDKLWHPACFVCSTCHELLVDMIYFWKNEKLYCGRHYCDSEKPRCAGCDELIFSNEYTQAENQNWHLKHFCCFDCDSILAGEIYVMVNDKPVCKPCYVKNHAVVCQGCHNAIDPEVQRVTYNNFSWHASTECFLCSCCSKCLIGQKFMPVEGMVFCSVECKKRMS
B5: RCN1 (protein, UniProt Q15293 30-331)
chain: KPTVRKERVVRPDSELGERPPEDNQSFQYDHEAFLGKEDSKTFDQLTPDESKERLGKIVDRIDNDGDGFVTTEELKTWIKRVQKRYIFDNVAKVWKDYDRDKDDKISWEEYKQATYGYYLGNPAEFHDSSDHHTFKKMLPRDERRFKAADLNGDLTATREEFTAFLHPEEFEHMKEIVVLETLEDIDKNGDGFVDQDEYIADMFSHEENGPEPDWVLSEREQFNEFRDLNKDGKLDKDEIRHWILPQDYDHAQAEARHLVYESDKNKDEKLTKEEILENWNMFVGSQATNYGEDLTKNHDEL
B6: PLIN3 (protein, UniProt O60664 1-434)
chain: MSADGAEADGSTQVTVEEPVQQPSVVDRVASMPLISSTCDMVSAAYASTKESYPHIKTVCDAAEKGVRTLTAAAVSGAQPILSKLEPQIASASEYAHRGLDKLEENLPILQQPTEKVLADTKELVSSKVSGAQEMVSSAKDTVATQLSEAVDATRGAVQSGVDKTKSVVTGGVQSVMGSRLGQMVLSGVDTVLGKSEEWADNHLPLTDAELARIATSLDGFDVASVQQQRQEQSYFVRLGSLSERLRQHAYEHSLGKLRATKQRAQEALLQLSQVLSLMETVKQGVDQKLVEGQEKLHQMWLSWNQKQLQGPEKEPPKPEQVESRALTMFRDIAQQLQATCTSLGSSIQGLPTNVKDQVQQARRQVEDLQATFSSIHSFQDLSSSILAQSRERVASAREALDHMVEYVAQNTPVTWLVGPFAPGITEKAPEEKK
B7: LASP1 (protein, UniProt Q14847 1-261)
chain: MNPNCARCGKIVYPTEKVNCLDKFWHKACFHCETCKMTLNMKNYKGYEKKPYCNAHYPKQSFTMVADTPENLRLKQQSELQSQVRYKEEFEKNKGKGFSVVADTPELQRIKKTQDQISNIKYHEEFEKSRMGPSGGEGMEPERRDSQDGSSYRRPLEQQQPHHIPTSAPVYQQPQQQPVAQSYGGYKEPAAPVSIQRSAPGGGGKRYRAVYDYSAADEDEVSFQDGDTIVNVQQIDDGWMYGTVERTGDTGMLPANYVEAI

These are yes or no findings as the source states them, for the method shown. In cells and extracts the contact can be indirect. These calls come from enrichment with a bait or labelling near it, and not all partners need be listed.

In this assay the target is growth hormone receptor (human (endogenous in RL95-2)) (UniProt P10912). The assay is described as follows: affinity purification with mass spectrometry; RL95-2 whole cell lysates (1 mg/ml), cells serum-starved and treated with or without 500 ng/ml GH; precipitated separately with anti-GHRIC and anti-GHREC antibodies on protein-G magnetic beads, eluates combined; peptides found in the IgG control filtered out; n = 3 per group.
Regarding EEF1D (from UniProt P29692 1-281), the binding result is “binds”.
As for “Eukaryotic Translation Elongation Factor 1 Gamma (from UniProt P26641 1-437)”, the binding entry was “binds”.
The same measure for RCC2 (from UniProt Q9P258 1-522): “binds”.
In the case of PFDN6 (from UniProt O15212 1-129), the binding entry was “binds”.
Turning to HSPA4 (from UniProt P34932 1-840), the binding entry is reported as “binds”.
Regarding FLNA (from UniProt P21333 1-2647), the binding entry is “binds”.
With MYL6 (from UniProt P60660 1-151), the binding entry is listed as “binds”.
With SHTN1 (from UniProt A0MZ66 1-631), the binding result is “binds”.
On to CAD (from UniProt P27708 1-2225), for which the binding entry is given as “binds”.
Take EIF5A (from UniProt P63241 1-154): the binding entry was “binds”.
Take “Eukaryotic translation elongation factor 1 alpha-1 (from UniProt P68104 1-462)”: the binding result was “binds”.
On to LAMC1 (from UniProt P11047 34-1609), for which the binding entry is on record as “binds”.
On to DDX21 (from UniProt Q9NR30 1-783), for which the binding entry is “binds”.
Consider HSPA8 (from UniProt P11142 1-646), for which the binding result is listed as “binds”.
Under “Epidermal growth factor receptor (from UniProt P00533 25-1210)” stands “binds”; under PFDN2 (from UniProt Q9UHV9 1-154), “binds”; under USP5 (from UniProt P45974 1-858), “binds”.
As to PSMD6 (from UniProt Q15008 1-389), the binding result is “binds”.
The same measure for B1: “binds”; for B2: “binds”; for B3: “binds”.
Turning to B4, the binding result is recorded as “binds”.
B5: the binding result is given as “binds”.
In the case of B6, the binding entry is listed as “binds”.
Consider B7, for which the binding entry is listed as “binds”.
